Reference: the supplement of paper PMC7024190
Counter-ions that a name gives are not always drawn. Some of the results follow. This data set is noisy: repeats of one test often differ as much as different tests do.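 Human embryonic kidney cells were transiently transfected with a plasmid bearing a Renilla luciferase gene under the HSV-TK promoter. This first-round screen tests roughly ten thousand compounds for ones that increase reporter output.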

test system: HEK 293FT; test: log relative Renilla luciferase luminescence (reporter expression vs reference, reference not stated) (log (base not stated)); higher = higher recombinant reporter expression; conditions: 10 µM; time after transfection 48 h

| Structure (SMILES) | log |
| --- | --- |
| CC(C(O)c1ccc(O)cc1)N1CCC(Cc2ccccc2)CC1 (stereo unspecified) [Ifenprodil] | 0.115 |
| COc1ccc(CC2c3cc(OC)c(OC)cc3CC[N+]2(C)CCC(=O)OCCCCCOC(=O)CC[N+]2(C)CCc3cc(OC)c(OC)cc3C2Cc2ccc(OC)c(OC)c2)cc1OC (stereo unspecified) | 0.111 |
| COc1cc(C[C@@H](CO)[C@H](CO)Cc2ccc(O)c(OC)c2)ccc1O | 0.0325 |
| O=C(O)COCCN1CCN([C@H](c2ccccc2)c2ccc(Cl)cc2)CC1 | -0.131 |
| COc1cc(N)c(Cl)cc1C(=O)NC1CCN(CCCOc2ccc(F)cc2)CC1OC (stereo unspecified) [Cisapride] | 0.0917 |
| CCCN1CCCC[C@H]1C(=O)Nc1c(C)cccc1C | 0.146 |
| C[C@]12C[C@H](O)[C@H]3[C@@H](CCC4=CC(=O)CC[C@@]43C)[C@@H]1CC[C@@H]2C(=O)CO | -0.452 |
| CC(C)NCC(O)COc1ccc(COCCOC(C)C)cc1 (stereo unspecified) | -1.34 |
| OCc1cc(C(O)CNCCCCCCOCCCCc2ccccc2)ccc1O (stereo unspecified) [Salmeterol] | -0.0165 |
| COC(=O)C1=C(C)NC(C)=C(C(=O)OCC(C)C)C1c1ccccc1[N+](=O)[O-] (stereo unspecified) | 0.019 |
| Cc1c(C(=O)NN2CCCCC2)nn(-c2ccc(Cl)cc2Cl)c1-c1ccc(I)cc1 | -0.115 |
| CC[C@H]1OC(=O)[C@H](C)C(=O)[C@H](C)[C@@H](O[C@@H]2O[C@H](C)C[C@H](N(C)C)[C@H]2O)[C@](C)(OC)C[C@@H](C)C(=O)[C@H](C)[C@H]2N(CCCCn3cnc(-c4cccnc4)c3)C(=O)O[C@]12C | -1.69 |
| C[C@@H]1C[C@H]2[C@@H]3C[C@H](F)C4=CC(=O)C(Cl)=C[C@]4(C)[C@@]3(F)[C@@H](O)C[C@]2(C)[C@@]1(O)C(=O)CO | -0.0284 |
| NNCCc1ccccc1 | 0.114 |
| CC(=O)NCCCCCCNC(C)=O | 0.112 |
| CNCCCC12CCC(c3ccccc31)c1ccccc12 [Maprotilline HCl] | 0.147 |
| O=C1c2c(O)cc(O)cc2O[C@H](c2ccc(O)c(O)c2)[C@H]1O (racemic) | -1.39 |
| COC(=O)C1=C(C)NC(C)=C(C(=O)OC)C1c1ccccc1[N+](=O)[O-] | 0.166 |
| C#C[C@]1(O)CC[C@H]2[C@@H]3CCc4cc(OC)ccc4[C@H]3CC[C@@]21C | -0.109 |
| CCC1=C[C@H]2CN(C1)Cc1c([nH]c3ccccc13)[C@@](C(=O)OC)(c1cc3c(cc1OC)N(C)[C@H]1[C@@](O)(C(=O)OC)[C@H](OC(C)=O)[C@]4(CC)C=CCN5CC[C@]31[C@@H]54)C2 | -0.541 |

| Structure (SMILES) | log |
| --- | --- |
| CC(C(=O)O)c1ccc(CC2CCCC2=O)cc1 (stereo unspecified) | -0.147 |
| NC(N)=Nc1nc(CSCC/C(N)=N/S(N)(=O)=O)cs1 | -0.0697 |
| COC(=O)C[C@](O)(CCCC(C)(C)O)C(=O)O[C@@H]1C(OC)=C[C@]23CCCN2CCc2cc4c(cc2[C@H]13)OCO4 | -1.45 |
| CO[C@H]1/C=C/O[C@@]2(C)Oc3c(C)c(O)c4c(O)c(c5c(nc6cc(C)ccn65)c4c3C2=O)NC(=O)/C(C)=C\C=C\[C@H](C)[C@H](O)[C@@H](C)[C@@H](O)[C@@H](C)[C@H](OC(C)=O)[C@@H]1C | -0.611 |
| CN(CCCN1c2ccccc2CCc2ccccc21)CC(=O)c1ccc(Cl)cc1 | 0.14 |
| CN1CCC(=C2c3ccccc3CC(=O)c3sccc32)CC1 | 0.143 |
| NC(=O)N1c2ccccc2CC(=O)c2ccccc21 [Trileptal] | 0.101 |
| O=C(O[C@H]1[C@H](Oc2ccccc2COC(=O)C2(O)C=CCCC2=O)O[C@H](CO)[C@@H](O)[C@@H]1O)c1ccccc1 (stereo partly specified) | 0.239 |
| OC[C@H]1O[C@@H](Oc2cc(O)cc(/C=C/c3ccc(O)cc3)c2)[C@H](O)[C@@H](O)[C@@H]1O | -0.234 |
| Cc1ccnc2c1NC(=O)c1cccnc1N2C1CC1 [Viramune] | -0.105 |
| Nc1nc2ccc(Cl)cc2c2nc(-c3ccco3)nn12 | 0.211 |
| CC[N+](C)(CC)CCOC(=O)C(O)(c1ccccc1)C1CCCCC1 (stereo unspecified) | 0.175 |
| O=C1[C@H](CC[C@H](O)c2ccc(F)cc2)[C@@H](c2ccc(O)cc2)N1c1ccc(F)cc1 | 0.00866 |
| COc1ccccc1N1CCN(CC(O)COc2cccc3ccccc23)CC1 (stereo unspecified) | -0.117 |
| Cc1ncc([N+](=O)[O-])n1CC(O)CCl (stereo unspecified) | -0.313 |
| O=C1CCc2ccc(OCCCCN3CCN(c4cccc(Cl)c4Cl)CC3)cc2N1 | -1.48 |
| O=C1CC2(CCCC2)CC(=O)N1CCNCC1COc2ccccc2O1 (stereo unspecified) | -0.0178 |
| CN(C)CCN(Cc1ccccc1)c1ccccn1 | -0.0234 |
| CCC1=C(C)CN(C(=O)NCCc2ccc(S(=O)(=O)NC(=O)N[C@H]3CC[C@H](C)CC3)cc2)C1=O | 0.13 |
| Cc1sc(N)c(C(=O)c2cccc(C(F)(F)F)c2)c1C | -0.0861 |

test system: HEK 293FT; test: as above; conditions: 10 µM; time after transfection 48 h; remark: another data set of the same source

| Structure (SMILES) | log |
| --- | --- |
| COc1cc(N)c(Cl)cc1C(=O)NC1CCN(CCCOc2ccc(F)cc2)CC1OC (stereo unspecified) [Cisapride] | 0.102 |
| OCc1cc(C(O)CNCCCCCCOCCCCc2ccccc2)ccc1O (stereo unspecified) [Salmeterol] | 0.158 |
| Cc1c(C(=O)NN2CCCCC2)nn(-c2ccc(Cl)cc2Cl)c1-c1ccc(I)cc1 | 0.0209 |
| Nc1nc2ccc(Cl)cc2c2nc(-c3ccco3)nn12 | 0.113 |
| O=C1CC2(CCCC2)CC(=O)N1CCNCC1COc2ccccc2O1 (stereo unspecified) | 0.0692 |
| Cc1sc(N)c(C(=O)c2cccc(C(F)(F)F)c2)c1C | -0.089 |
